# Assay results

By UniProt entry, the sequences of proteins in these tests, tags left out.
UniProt P08482, whole entry, target on record: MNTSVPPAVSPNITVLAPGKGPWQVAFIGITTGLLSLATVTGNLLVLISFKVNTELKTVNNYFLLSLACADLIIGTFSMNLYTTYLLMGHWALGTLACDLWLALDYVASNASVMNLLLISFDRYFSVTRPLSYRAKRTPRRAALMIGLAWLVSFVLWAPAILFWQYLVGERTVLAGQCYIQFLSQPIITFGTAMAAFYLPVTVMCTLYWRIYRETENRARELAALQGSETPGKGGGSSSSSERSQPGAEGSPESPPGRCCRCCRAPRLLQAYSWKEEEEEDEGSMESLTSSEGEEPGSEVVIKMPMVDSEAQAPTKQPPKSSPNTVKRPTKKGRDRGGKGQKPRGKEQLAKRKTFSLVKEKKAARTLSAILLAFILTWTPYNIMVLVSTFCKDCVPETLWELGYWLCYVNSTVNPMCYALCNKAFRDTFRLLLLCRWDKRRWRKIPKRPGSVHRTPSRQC

From PubChem BioAssay record AID944 (NCATS, 2007).

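Rat M1 receptor blockade in CHO cells, judged by reduced carbachol-driven IP1 signal after half an hour, read with time-resolved FRET. Each compound ran as a dilution series of about 15 steps, from roughly 0.00059 to 46 µM. The value is the fitted AC50 for inhibition; a lower number means a more potent blocker. Calls come from fitted curve class and score: actives score 40–100, inconclusives (weaker, partial, poorly fitted or single-point curves) score 1–39, inactives score 0.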

Values are in µM. Every entry below has the call inconclusive. These entries are mostly ones the record files as inconclusive; other results of the assay are not listed here. A potency from a partial, single-point or poor curve is only a rough figure. Activity scores are not listed here.

| Compound | Potency (µM) | curve as filed |
|---|---|---|
| `Clc1cccc(N2CCNCC2)c1` | 15.85 | inhibitor, partial curve, poor fit |
| `Fc1ccc(CN(C2=NCCN2)c2c(Cl)cccc2Cl)cc1` | 10 | inhibitor, partial curve, poor fit |
| `NOCC(=O)O` | 2.239 | inhibitor, full curve, poor fit |
| `Nc1c(S(=O)(=O)O)cc(Nc2ccc(Nc3nc(Cl)nc(Nc4ccc(S(=O)(=O)O)cc4)n3)c(S(=O)(=O)O)c2)c2c1C(=O)c1ccccc1C2=O` | 10 | inhibitor, partial curve, poor fit |
| `CNC(=O)[C@@H]1O[C@@H](n2cnc3c(N)ncnc32)[C@@H](O)[C@H]1O` | 1 | inhibitor, full curve, poor fit |
| `COc1cccc(C(=O)NCCN2CCN(c3ccc(Cl)cc3)CC2)c1` | 11.22 | inhibitor, partial curve, poor fit |
| `OC1(c2ccc(Cl)cc2)CCN(Cc2c[nH]c3ccccc23)CC1` | 12.59 | inhibitor, partial curve, poor fit |
| `NCCc1c[nH]c2ccc(O)cc12` | 22.39 | inhibitor, partial curve, poor fit |
| `Nc1nc(SCc2ccc([N+](=O)[O-])cc2)c2ncn([C@@H]3O[C@@H](CO)[C@@H](O)[C@H]3O)c2n1` | 14.13 | inhibitor, partial curve, poor fit |
| `CN1CCc2cccc(Cl)c2CC1` | 22.39 | inhibitor, partial curve, poor fit |
| `CCCCCCC(C)(C)c1ccc([C@@H]2C[C@H](O)CC[C@@H]2CCCO)c(O)c1` | 17.78 | inhibitor, partial curve, poor fit |
| `COc1ccccc1N1CCN(CCCCNS(=O)(=O)c2cccc3c(N(C)C)cccc23)CC1` | 25.12 | inhibitor, partial curve, poor fit |
| `C[N+]1(C)[C@@H]2CC[C@H]1CC(OC(=O)c1c[nH]c3ccccc13)C2` (stereo partly shown) | 14.13 | inhibitor, partial curve, poor fit |
| `CCN(CC)C(=O)N[C@H]1C[C@H]2c3cccc4[nH]cc(c34)C[C@@H]2N(C)C1` | 19.95 | inhibitor, partial curve, poor fit |
| `CN(C)CCCO[C@H]1[C@H]([C@H](O)CO)O[C@H]2OC(C)(C)O[C@@H]21` | 1.413 | inhibitor, full curve, poor fit |
| `CNc1ccc2oc(C[C@H]3O[C@]4(CC[C@H]3C)O[C@H]([C@H](C)C(=O)c3ccc[nH]3)[C@H](C)C[C@H]4C)nc2c1C(=O)O` | 17.78 | inhibitor, partial curve, poor fit |

Once more, the final 2:

Compound,Potency (µM),curve as filed
CN(C)CCCO[C@H]1[C@H]([C@H](O)CO)O[C@H]2OC(C)(C)O[C@@H]21,1.413,"inhibitor, full curve, poor fit"
CNc1ccc2oc(C[C@H]3O[C@]4(CC[C@H]3C)O[C@H]([C@H](C)C(=O)c3ccc[nH]3)[C@H](C)C[C@H]4C)nc2c1C(=O)O,17.78,"inhibitor, partial curve, poor fit"